PubChem BioAssay AID686943 – Drosophila RNAi Screening Center, 2013
Test: 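Fly genes whose loss alters ERK activation after insulin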 (primary screen). Cells: Drosophila S2R+ haemocyte-like cells expressing YFP-tagged ERK (Rolled). Reagents: long dsRNA against Drosophila genes. Challenge: insulin stimulation versus unstimulated cells; dose and duration not given. Read-out: 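Per-plate z-scores of phospho-ERK immunostaining normalised to YFP-tagged ERK, measured with and without insulin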. Direction: replicate 1, z-score of dpERK with insulin and replicate 2, z-score of dpERK with insulin: higher = more active ERK per ERK-YFP after insulin.
The screen tested about 23,000 reagents; this is an unselected part of those with a known target gene and a result. 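Extra replicates exist only for a retested subset of genes; insulin dose and duration not given; both raised and lowered dpERK matter.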 Not all columns of the deposit are shown. The record does not give: the amount of reagent, the time to read-out.

For ouib [DRSC14376], the entry reads replicate 1, z-score of dpERK with insulin -0.57; replicate 2, z-score of dpERK with insulin -0.83.
For CG7264 [DRSC10793] the deposit lists replicate 1, z-score of dpERK with insulin 0.04; replicate 2, z-score of dpERK with insulin -0.3.
With knock-down of CG10300 [DRSC14225] the results were replicate 1, z-score of dpERK with insulin 0.51; replicate 2, z-score of dpERK with insulin -0.38.
Gart [DRSC03481] showed replicate 1, z-score of dpERK with insulin 0.06; replicate 2, z-score of dpERK with insulin 0.
After knock-down of Grx1 [DRSC10727], the record shows replicate 1, z-score of dpERK with insulin 0.09; replicate 2, z-score of dpERK with insulin -0.45.
After knock-down of CG1304 [DRSC20494], the screen gave replicate 1, z-score of dpERK with insulin 0.38; replicate 2, z-score of dpERK with insulin 0.05.
AlaRS-m [DRSC09660] showed replicate 1, z-score of dpERK with insulin 0.27; replicate 2, z-score of dpERK with insulin -0.35.
For Ir31a [DRSC22358], the entry reads replicate 1, z-score of dpERK with insulin 0.44; replicate 2, z-score of dpERK with insulin -0.4.
Against CG11247 [DRSC11643], the entry reads replicate 1, z-score of dpERK with insulin 0.27; replicate 2, z-score of dpERK with insulin 1.41.
After knock-down of CG11247 [DRSC21901], the screen gave replicate 1, z-score of dpERK with insulin -0.05; replicate 2, z-score of dpERK with insulin 0.43.
Against CG12347 [DRSC14502], the values are replicate 1, z-score of dpERK with insulin -0.61; replicate 2, z-score of dpERK with insulin 0.19.
CG16711 [DRSC10220] scored replicate 1, z-score of dpERK with insulin 0.8; replicate 2, z-score of dpERK with insulin 0.13.
elfless [DRSC02451] gave replicate 1, z-score of dpERK with insulin 0.16; replicate 2, z-score of dpERK with insulin 0.24.
After knock-down of rdgC [DRSC11387], the record shows replicate 1, z-score of dpERK with insulin 0.73; replicate 2, z-score of dpERK with insulin 0.1.

Records above whose gene name starts with G or g:
Gart [DRSC03481] — replicate 1, z-score of dpERK with insulin: 0.06; replicate 2, z-score of dpERK with insulin: 0
Grx1 [DRSC10727] — replicate 1, z-score of dpERK with insulin: 0.09; replicate 2, z-score of dpERK with insulin: -0.45

Next records follow:
After knock-down of CG17816 [DRSC15277], the screen gave replicate 1, z-score of dpERK with insulin -1.61; replicate 2, z-score of dpERK with insulin -1.49.
After knock-down of Mctp [DRSC06510], the screen gave replicate 1, z-score of dpERK with insulin -0.76; replicate 2, z-score of dpERK with insulin -0.65.
Depletion of Mctp [DRSC22896] gave: replicate 1, z-score of dpERK with insulin 0.3; replicate 2, z-score of dpERK with insulin 0.29.
Against CG4592 [DRSC02761] the deposit lists replicate 1, z-score of dpERK with insulin 0.18; replicate 2, z-score of dpERK with insulin -0.18.
Depletion of CG3517 [DRSC15492] gave: replicate 1, z-score of dpERK with insulin -0.21; replicate 2, z-score of dpERK with insulin 0.23.
For Ac13E [DRSC19325], the values are replicate 1, z-score of dpERK with insulin 1.02; replicate 2, z-score of dpERK with insulin 0.6.
Against Pde11 [DRSC02028] the deposit lists replicate 1, z-score of dpERK with insulin 1.24; replicate 2, z-score of dpERK with insulin 1.63.
Against Pde11 [DRSC02460] the deposit lists replicate 1, z-score of dpERK with insulin 2.47; replicate 2, z-score of dpERK with insulin 2.7.
